Experimental data published in the supplement of paper PMC7877785.
± gives the uncertainty stated by the source. Many entries were measured with a wide error.

Test: self-splicing fitness, log relative to wild type (ln ratio); higher = more splicing; Tetrahymena group I intron in knt gene, E. coli kanamycin selection, DiMSum; sequences stand for … in CUCUCU…GGAGGGAAAAGUUAUCAGGCAUGCACCUGGUAGCUAGUCUUUAAACCAAUAGAUUGCAUCGGUUUAAAAGGCAAGACCGUCAAAUUGCGGGAAAGGGGUCAACAGCCGUUCAGUACCAAGUCUCAGGGGAAACUUUGAGAUGGCCUUGCAAAGGGUAUGGUAAUAAGCUGACGGACAUGGUCCUAACCACGCAGCCAAGUCCUAAGUCAACAGAUCUUCUGUUGAUAUGGAUGCAGUUCACAGACUAAAUGUCGGUCGGGGAAGAUGUAUUCUUCUCAUAAGAUAUAGUCGGACCUCUCCUUAAUGGGAGCUAGCGGAUGAAGUGAUGCAACACUGGAGCCGCUGGGAACUAAUUUGUAUGCGAAAGUAUAUUGAUUAGUUUUGGAGUACUCGUGGUCG
How it was run: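 Six replicate transformations of E. coli BL21(DE3) with a pET-22b(+) library were grown overnight at 37°C or 30°C. The library randomised all eight P1ex-region intron nucleotides, the intron lying in the knt kanamycin-resistance gene, and plates were LB agar with or without 25 μg/mL kanamycin plus 100 μg/mL carbenicillin, 50 μM IPTG and 0.2% rhamnose. Pooled colonies were amplicon-sequenced on an Illumina HiSeq 2500, and fitness is the DiMSum error-weighted combination of wild-type-normalised replicate fold changes, kanamycin versus none.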

GAGAAGCAAUAUUACGCCAG
self-splicing fitness (ln) (30 °C): -2.86 ± 0.79

GUCAAGCAAUAUUACGUCGG
self-splicing fitness (ln) (30 °C): -4.6 ± 0.51

AGCGAGCAAUAUUACGGACG
self-splicing fitness (ln) (30 °C): -3.09 ± 0.63

UCCAAGCAAUAUUACGGGAG
self-splicing fitness (ln) (30 °C): -2.57 ± 0.16 | self-splicing fitness (ln) (37 °C): -2.9 ± 0.35

CCCCAGCAAUAUUACGAAUA
self-splicing fitness (ln) (30 °C): -4.43 ± 0.72

GAGCAGCAAUAUUACGAGAG
self-splicing fitness (ln) (30 °C): -4.27 ± 1

CCCGAGCAAUAUUACGCGCC
self-splicing fitness (ln) (30 °C): -4.59 ± 0.58

GGGUAGCAAUAUUACGCUAG
self-splicing fitness (ln) (37 °C): -1.24 ± 0.26

CUUCAGCAAUAUUACGAAUC
self-splicing fitness (ln) (30 °C): -1.04 ± 0.2 | self-splicing fitness (ln) (37 °C): -1.06 ± 0.19

AUAUAGCAAUAUUACGUUAG
self-splicing fitness (ln) (30 °C): -0.572 ± 0.76 | self-splicing fitness (ln) (37 °C): 0.000402 ± 1.2

UCCAAGCAAUAUUACGUCGU
self-splicing fitness (ln) (30 °C): -0.899 ± 0.073 | self-splicing fitness (ln) (37 °C): -0.178 ± 0.085

UUUCAGCAAUAUUACGCCAC
self-splicing fitness (ln) (30 °C): -4.4 ± 0.74 | self-splicing fitness (ln) (37 °C): -2.41 ± 0.76

GAUGAGCAAUAUUACGCCUU
self-splicing fitness (ln) (37 °C): -1.99 ± 0.61

CAAUAGCAAUAUUACGGAUA
self-splicing fitness (ln) (30 °C): -3.03 ± 0.48 | self-splicing fitness (ln) (37 °C): -2.77 ± 0.35

AAUUAGCAAUAUUACGGGAC
self-splicing fitness (ln) (30 °C): -1.96 ± 0.87

AGACAGCAAUAUUACGUAGU
self-splicing fitness (ln) (30 °C): -3.27 ± 0.1 | self-splicing fitness (ln) (37 °C): -1.88 ± 0.1

AUAUAGCAAUAUUACGCCGC
self-splicing fitness (ln) (37 °C): -1.62 ± 1.1

GUGGAGCAAUAUUACGGACG
self-splicing fitness (ln) (30 °C): -1.96 ± 0.87 | self-splicing fitness (ln) (37 °C): -3.77 ± 1

AUGUAGCAAUAUUACGUGGU
self-splicing fitness (ln) (30 °C): -4.5 ± 0.58

CUUCAGCAAUAUUACGAUGC
self-splicing fitness (ln) (30 °C): -2.93 ± 0.21 | self-splicing fitness (ln) (37 °C): -2.23 ± 0.23

UUAUAGCAAUAUUACGAGGU
self-splicing fitness (ln) (30 °C): -3.48 ± 0.52

GGCUAGCAAUAUUACGCCAG
self-splicing fitness (ln) (37 °C): -2.16 ± 0.56

ACGCAGCAAUAUUACGUGUU
self-splicing fitness (ln) (30 °C): -4.19 ± 0.1 | self-splicing fitness (ln) (37 °C): -2.85 ± 0.14

CCGUAGCAAUAUUACGUGAC
self-splicing fitness (ln) (37 °C): -2.37 ± 0.75

AUCGAGCAAUAUUACGCCGC
self-splicing fitness (ln) (30 °C): -1.96 ± 0.51

GAAGAGCAAUAUUACGGUGU
self-splicing fitness (ln) (30 °C): -3.49 ± 0.14 | self-splicing fitness (ln) (37 °C): -3.02 ± 0.23

UUUUAGCAAUAUUACGGAAC
self-splicing fitness (ln) (37 °C): -1.62 ± 1.1

CUAGAGCAAUAUUACGAAAA
self-splicing fitness (ln) (37 °C): -0.996 ± 0.53

AACGAGCAAUAUUACGACCG
self-splicing fitness (ln) (30 °C): -3.46 ± 0.34 | self-splicing fitness (ln) (37 °C): -1.84 ± 1.1

GUUCAGCAAUAUUACGAGCA
self-splicing fitness (ln) (30 °C): -4.17 ± 1.1

UACGAGCAAUAUUACGCGUA
self-splicing fitness (ln) (30 °C): -4.38 ± 1

UCAAAGCAAUAUUACGCGCU
self-splicing fitness (ln) (30 °C): -3.63 ± 0.47 | self-splicing fitness (ln) (37 °C): -2.53 ± 0.45

UUUGAGCAAUAUUACGGAGA
self-splicing fitness (ln) (30 °C): -2.64 ± 0.65

GGUCAGCAAUAUUACGAGGG
self-splicing fitness (ln) (30 °C): -4.23 ± 0.51

CUGCAGCAAUAUUACGAGAU
self-splicing fitness (ln) (37 °C): -2.37 ± 0.55

UUAUAGCAAUAUUACGCUAC
self-splicing fitness (ln) (30 °C): -3.9 ± 0.6

GCCGAGCAAUAUUACGAAAA
self-splicing fitness (ln) (30 °C): -1.52 ± 0.65

CUUGAGCAAUAUUACGACAC
self-splicing fitness (ln) (30 °C): -2.71 ± 0.56

CAGCAGCAAUAUUACGGAAG
self-splicing fitness (ln) (30 °C): -0.307 ± 0.054 | self-splicing fitness (ln) (37 °C): -0.29 ± 0.068

GUCGAGCAAUAUUACGACCA
self-splicing fitness (ln) (30 °C): -1.67 ± 0.65

UCGAAGCAAUAUUACGUGUU
self-splicing fitness (ln) (30 °C): -3.56 ± 0.2 | self-splicing fitness (ln) (37 °C): -2.47 ± 0.19

UCGGAGCAAUAUUACGCAAC
self-splicing fitness (ln) (30 °C): -3.76 ± 0.62 | self-splicing fitness (ln) (37 °C): -3.18 ± 1

CUCGAGCAAUAUUACGCAAU
self-splicing fitness (ln) (37 °C): -3.22 ± 0.61

UUAGAGCAAUAUUACGAGCU
self-splicing fitness (ln) (30 °C): -3.2 ± 0.63 | self-splicing fitness (ln) (37 °C): -2.65 ± 0.65

CUCGAGCAAUAUUACGCUAC
self-splicing fitness (ln) (37 °C): -1.6 ± 0.83

GACGAGCAAUAUUACGUUAA
self-splicing fitness (ln) (30 °C): -3.77 ± 0.27 | self-splicing fitness (ln) (37 °C): -2.79 ± 0.25

CCGGAGCAAUAUUACGAUCC
self-splicing fitness (ln) (37 °C): -1.13 ± 0.87

GCUGAGCAAUAUUACGCUUA
self-splicing fitness (ln) (37 °C): -2.42 ± 0.62

GGAGAGCAAUAUUACGAAAA
self-splicing fitness (ln) (30 °C): -2.23 ± 0.62

CUUUAGCAAUAUUACGGCUA
self-splicing fitness (ln) (30 °C): -3.13 ± 1 | self-splicing fitness (ln) (37 °C): -2.68 ± 0.56

GCAAAGCAAUAUUACGGUUC
self-splicing fitness (ln) (30 °C): -2.17 ± 0.089 | self-splicing fitness (ln) (37 °C): -0.948 ± 0.11

AUUGAGCAAUAUUACGCGCC
self-splicing fitness (ln) (37 °C): -2.47 ± 1.1

GGUAAGCAAUAUUACGAAGA
self-splicing fitness (ln) (30 °C): -2.94 ± 0.86 | self-splicing fitness (ln) (37 °C): -0.758 ± 0.53

AUGGAGCAAUAUUACGGUUA
self-splicing fitness (ln) (30 °C): -2.84 ± 0.54

UAUAAGCAAUAUUACGCGGC
self-splicing fitness (ln) (30 °C): -3.53 ± 0.35 | self-splicing fitness (ln) (37 °C): -2.92 ± 0.47

CACCAGCAAUAUUACGUUAU
self-splicing fitness (ln) (30 °C): -3.86 ± 0.12 | self-splicing fitness (ln) (37 °C): -3.32 ± 0.15

AAGCAGCAAUAUUACGAGGU
self-splicing fitness (ln) (30 °C): -3.55 ± 0.16 | self-splicing fitness (ln) (37 °C): -2.65 ± 0.19

AGUGAGCAAUAUUACGGUAG
self-splicing fitness (ln) (37 °C): -2.58 ± 0.62

CUGUAGCAAUAUUACGAGCU
self-splicing fitness (ln) (30 °C): -4.48 ± 0.73 | self-splicing fitness (ln) (37 °C): -3.09 ± 1
